{"source": "paper PMC9166893", "binders": {"B1": {"name": "checkpoint kinase CHK1, endogenous in rat H9c2-CK2α-44 myoblasts (enzyme, UniProt Q91ZN7 1-476)", "chain": "MAVPFVEDWDLVQTLGEGAYGEVQLAVNRITEEAVAVKIVDMKRAIDCPENIKKEICINKMLNHENVVKFYGHRREGNIQYLFLEYCSGGELFDRIEPDIGMPEQDAQRFFHQLMAGVVYLHGIGITHRDIKPENLLLDERDNLKISDFGLATVFRHNNRERLLNKMCGTLPYVAPELLKRKEFHAEPVDVWSCGIVLTAMLAGELPWDQPSDSCQEYSDWKEKKTYLNPWKKIDSAPLALLHKILVENPSARITIPDIKKDRWYNKPLNRGAKRPRATSGGMSESSSGFSKHIHSNLDFSPINSGSSEENVKFSSSQPEPRTGLSLWDTGPSNVDKLVQGISFSQPTCPDHMLVNSQLLGTPGSSQNPWQRLVKRMTRFFTKLDADKSYQCLKETFEKLGYQWKKSCMNQVTVSTMDRRNNKLIFKINLVEMDEKILVDFRLSKGDGLEFKRHFLKIKGKLSDIVSSQKVWFPVT"}}, "target": "CLASPIN (CLSPN), endogenous in rat H9c2-CK2α-44 myoblasts (rat (endogenous in H9c2))", "experiment": "co-IP; 1 mg whole cell lysate of H9c2-CK2α-44 cells, immunoprecipitation with mouse monoclonal anti-CLSPN, Western blot; control cells and cells with 3 mM HU for 4 h", "note": "These are yes or no findings as the source states them, for the method shown. In cells and extracts the contact can be indirect.", "data": [{"binder": "B1", "values": [{"measurement": "binding", "value": "no binding"}]}]}
